Publication doi:10.1101/250936
Results are given in words; binding and its absence hold for the method and conditions named. Binding seen in cells or lysates may run through a third protein. A result given as binding can be weak or reduced; the word gives no strength.

Protein sequences, listed by entry. Tags and fused reporters are not part of them. Lines headed by an entry give the natural chain unless they say otherwise; changes in a name come on top.
UniProt P46940: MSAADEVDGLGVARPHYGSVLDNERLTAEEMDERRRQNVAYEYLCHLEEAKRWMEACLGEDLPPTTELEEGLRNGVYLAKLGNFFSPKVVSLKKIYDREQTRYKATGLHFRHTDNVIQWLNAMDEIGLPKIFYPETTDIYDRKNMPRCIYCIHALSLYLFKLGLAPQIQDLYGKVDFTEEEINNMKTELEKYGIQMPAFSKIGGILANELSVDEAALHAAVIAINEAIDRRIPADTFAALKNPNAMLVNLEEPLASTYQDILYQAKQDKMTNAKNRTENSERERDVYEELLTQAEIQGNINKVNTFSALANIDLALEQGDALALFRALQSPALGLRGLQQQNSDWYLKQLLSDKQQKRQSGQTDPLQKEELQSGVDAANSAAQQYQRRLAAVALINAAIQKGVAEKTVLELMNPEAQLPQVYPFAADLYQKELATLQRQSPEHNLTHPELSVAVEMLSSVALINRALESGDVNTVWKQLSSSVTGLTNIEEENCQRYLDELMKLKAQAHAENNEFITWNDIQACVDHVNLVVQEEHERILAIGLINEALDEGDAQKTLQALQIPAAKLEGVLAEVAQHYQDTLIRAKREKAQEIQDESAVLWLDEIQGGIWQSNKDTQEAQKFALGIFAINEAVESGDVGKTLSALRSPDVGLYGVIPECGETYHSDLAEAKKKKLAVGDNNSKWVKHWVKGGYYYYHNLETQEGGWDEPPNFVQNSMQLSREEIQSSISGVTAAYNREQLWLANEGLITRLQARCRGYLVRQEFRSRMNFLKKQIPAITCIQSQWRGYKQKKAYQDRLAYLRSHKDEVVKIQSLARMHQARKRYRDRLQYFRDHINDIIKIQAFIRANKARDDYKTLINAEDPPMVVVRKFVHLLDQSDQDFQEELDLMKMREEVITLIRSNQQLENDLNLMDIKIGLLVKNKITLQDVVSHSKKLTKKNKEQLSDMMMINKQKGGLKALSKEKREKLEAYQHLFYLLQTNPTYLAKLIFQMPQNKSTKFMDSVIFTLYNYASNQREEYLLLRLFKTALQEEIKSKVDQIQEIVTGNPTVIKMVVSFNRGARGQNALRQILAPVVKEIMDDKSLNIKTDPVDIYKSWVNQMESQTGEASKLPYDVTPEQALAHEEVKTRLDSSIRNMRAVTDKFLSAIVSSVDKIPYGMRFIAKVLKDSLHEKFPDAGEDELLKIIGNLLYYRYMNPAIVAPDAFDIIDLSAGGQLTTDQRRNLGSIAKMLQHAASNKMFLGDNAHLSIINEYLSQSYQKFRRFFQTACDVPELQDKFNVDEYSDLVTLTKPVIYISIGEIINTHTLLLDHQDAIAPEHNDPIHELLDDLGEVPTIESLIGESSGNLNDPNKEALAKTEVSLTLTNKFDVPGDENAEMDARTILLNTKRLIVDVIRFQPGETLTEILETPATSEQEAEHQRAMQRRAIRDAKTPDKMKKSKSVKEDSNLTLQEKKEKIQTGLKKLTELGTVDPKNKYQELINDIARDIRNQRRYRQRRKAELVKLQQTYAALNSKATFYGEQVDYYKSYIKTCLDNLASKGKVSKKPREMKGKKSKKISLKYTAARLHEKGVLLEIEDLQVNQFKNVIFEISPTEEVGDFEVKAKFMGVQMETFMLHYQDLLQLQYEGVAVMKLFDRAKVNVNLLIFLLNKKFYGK
UniProt P27986: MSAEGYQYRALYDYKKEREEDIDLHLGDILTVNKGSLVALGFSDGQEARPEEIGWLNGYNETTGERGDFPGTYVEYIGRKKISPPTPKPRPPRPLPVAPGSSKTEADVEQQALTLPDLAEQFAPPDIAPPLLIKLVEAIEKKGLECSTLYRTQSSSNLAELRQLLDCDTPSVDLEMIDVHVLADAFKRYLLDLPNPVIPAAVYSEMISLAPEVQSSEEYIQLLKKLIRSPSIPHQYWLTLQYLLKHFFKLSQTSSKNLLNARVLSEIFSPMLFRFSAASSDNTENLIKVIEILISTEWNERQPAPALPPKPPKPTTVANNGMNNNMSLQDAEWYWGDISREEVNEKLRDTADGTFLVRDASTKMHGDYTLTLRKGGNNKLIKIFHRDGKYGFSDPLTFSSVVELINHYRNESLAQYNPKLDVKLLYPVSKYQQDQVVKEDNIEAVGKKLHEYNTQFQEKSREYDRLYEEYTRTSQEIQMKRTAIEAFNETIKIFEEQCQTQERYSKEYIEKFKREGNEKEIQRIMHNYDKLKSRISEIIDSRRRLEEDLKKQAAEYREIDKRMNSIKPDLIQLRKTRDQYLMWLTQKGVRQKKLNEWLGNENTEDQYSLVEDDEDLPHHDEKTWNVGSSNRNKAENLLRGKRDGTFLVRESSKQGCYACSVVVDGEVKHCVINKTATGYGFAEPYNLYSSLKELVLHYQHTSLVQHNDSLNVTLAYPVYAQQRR

Key:
[1] = target: Myc-tagged IQ3 motif deleted IQGAP1 (IQGAP1^ΔIQ3) (UniProt P46940); assay: proximity ligation
[2] = target: Myc-tagged IQ3 motif deleted IQGAP1 (IQGAP1^ΔIQ3) (UniProt P46940); assay: co-IP
[3] = target: Myc-tagged IQ3 motif deleted IQGAP1 (IQGAP1^ΔIQ3) (UniProt P46940); assay: proximity ligation; remark: listed apart in the source

Substance: PI3K regulatory subunit p85α (from UniProt P27986 1-724)
- binding [1]: binds
- binding [2]: binds

Substance: Epidermal growth factor receptor (EGFR) (from UniProt P00533 25-1210)
- binding [1]: binds
- binding [3]: binds
- binding [2]: binds
